# Reference: article PMC7848139, “Novel Hybrid CHC from β-carboline and N-Hydroxyacrylamide Overcomes Drug-Resistant Hepatocellular Carcinoma by Promoting Apoptosis, DNA Damage, and Cell Cycle Arrest” (Frontiers in Pharmacology, 2021)
# Tests used:
# Format in all cases: cell-based
# SMMC-7721 = assay: MTT antiproliferative assay, SMMC-7721; conditions: Homo sapiens, 72 h, mean ± SD of three experiments, read-out: In vitro antiproliferative activity (IC50) SMMC-7721
# Description: (§1) Human cancer cell lines (SMMC-7721, Bel7402, Huh7, HCT116), drug-resistant cell lines (Bel7402/5-FU), and human normal hepatocyte cells (LO2) were purchased from Institute of Cell Biology (Shanghai, China).
# (§2) Briefly, appropriate cells (1 × 10^4 cells/mL) were placed into 96-well plates in 100 μL of DMEM medium overnight. Then adding 100 μL of evaluated compounds into individual well for 72 h while 0.1% DMSO aqueous solution was treated as the negative control. After incubation with 30 μl MTT (5 mg/mL) for 4 h in all well, and ELISA plate reader measured absorbance of each well at 570 nm. Then calculating cytotoxicity effect of evaluated compounds through the formula: Cell inhibitory percentage (%) = (1−OD of treatment group/OD of control) × 100%. GraphPadPrism (4.03) calculated data to afford Corresponding IC50 values.
# HCT116 = assay: MTT antiproliferative assay, HCT116; conditions: Homo sapiens, HCT-116, 72 h, mean ± SD of three experiments, read-out: In vitro antiproliferative activity (IC50) HCT116
# Description: as §1, §2
# Huh7 = assay: MTT antiproliferative assay, Huh7; conditions: Homo sapiens, Huh-7, 72 h, mean ± SD of three experiments, read-out: In vitro antiproliferative activity (IC50) Huh7
# Description: as §1, §2
# [1] = test system: SUMM-7721, Bel7402, Huh7, HCT116 and Bel7402/5FU cells; assay: MTT antiproliferative assay, range over the five cancer cell lines; conditions: Homo sapiens, read-out: IC50 values over five cancer cell lines
# Description: as §1, §2
# Bel7402 = assay: MTT antiproliferative assay, Bel7402; conditions: Homo sapiens, Bel-7402, 72 h, mean ± SD of three experiments, read-out: In vitro antiproliferative activity (IC50) Bel7402
# Description: as §1, §2
# Bel7402/5-FU = assay: MTT antiproliferative assay, Bel7402/5-FU; conditions: Homo sapiens, drug-resistant HCC cells, 72 h, mean ± SD of three experiments, read-out: In vitro antiproliferative activity (IC50) Bel7402/5-FU
# Description: as §1, §2
compound,measurement,setting,value
"O=C(CCCCCCC(=O)Nc1ccccc1)NO [SAHA, Vorinostat, reference compound]",IC50,SMMC-7721,5.23 ± 0.48 µM
same,IC50,HCT116,4.97 ± 0.56 µM
same,IC50,Huh7,5.07 ± 0.64 µM
same,IC50,[1],4.72 to 9.83 µM
same,IC50,Bel7402,4.72 ± 0.61 µM
same,IC50,Bel7402/5-FU,9.83 ± 0.89 µM
